Here are results for three molecules from publication PMC3415447.

Amino acid sequences for entries named in this document (tags omitted).
UniProt P40562: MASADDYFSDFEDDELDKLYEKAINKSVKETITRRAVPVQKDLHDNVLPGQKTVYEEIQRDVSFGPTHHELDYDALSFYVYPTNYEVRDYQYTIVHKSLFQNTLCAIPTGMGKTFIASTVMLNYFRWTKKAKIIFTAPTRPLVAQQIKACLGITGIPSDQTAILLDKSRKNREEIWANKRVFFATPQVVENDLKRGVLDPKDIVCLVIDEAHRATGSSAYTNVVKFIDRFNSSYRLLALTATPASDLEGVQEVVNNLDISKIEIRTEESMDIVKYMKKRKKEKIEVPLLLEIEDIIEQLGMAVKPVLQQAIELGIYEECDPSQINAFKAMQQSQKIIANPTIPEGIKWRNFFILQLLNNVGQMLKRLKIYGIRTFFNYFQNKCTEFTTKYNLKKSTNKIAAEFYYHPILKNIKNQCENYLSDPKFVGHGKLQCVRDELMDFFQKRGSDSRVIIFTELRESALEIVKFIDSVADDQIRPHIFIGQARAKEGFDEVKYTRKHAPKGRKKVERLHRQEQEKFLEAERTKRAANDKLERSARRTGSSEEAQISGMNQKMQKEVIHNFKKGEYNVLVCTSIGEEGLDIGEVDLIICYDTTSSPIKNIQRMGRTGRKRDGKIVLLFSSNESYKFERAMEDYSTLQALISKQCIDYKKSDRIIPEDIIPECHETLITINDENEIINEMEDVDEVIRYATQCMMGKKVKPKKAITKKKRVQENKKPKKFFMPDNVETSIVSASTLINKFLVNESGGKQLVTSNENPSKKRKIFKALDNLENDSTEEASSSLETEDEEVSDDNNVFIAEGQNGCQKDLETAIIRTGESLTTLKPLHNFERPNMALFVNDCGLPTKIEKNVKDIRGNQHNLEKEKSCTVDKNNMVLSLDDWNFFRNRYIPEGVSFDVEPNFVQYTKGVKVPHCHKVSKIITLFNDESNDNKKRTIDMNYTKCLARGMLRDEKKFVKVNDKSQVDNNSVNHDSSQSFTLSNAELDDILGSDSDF

The target in the experiment is T1, FLAG-tagged Mgm101 (budding yeast) (UniProt P32787).
T1 sequence: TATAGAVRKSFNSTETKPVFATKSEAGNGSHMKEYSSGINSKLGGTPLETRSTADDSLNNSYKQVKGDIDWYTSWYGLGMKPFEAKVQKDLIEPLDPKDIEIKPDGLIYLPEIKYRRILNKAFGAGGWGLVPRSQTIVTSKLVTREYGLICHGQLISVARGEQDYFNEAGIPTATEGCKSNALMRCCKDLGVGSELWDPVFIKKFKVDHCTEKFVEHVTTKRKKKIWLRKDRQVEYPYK
Kind of experiment: co-IP; 6 mg whole cell extract of galactose-induced cells incubated with Anti-FLAG M2 Affinity Gel; lysis buffer 50 mM sodium phosphate pH 7.4, 1 mM EDTA, 5% glycerol, protease inhibitors, nuclease mix; blotted for 6xHis.

These are yes or no findings as the source states them, for the method shown. Binding seen in cells or lysates may run through a third protein. Some binding calls cover weakened binding; strength is not graded here. Tags and fused reporters may be left off the sequences shown.

For the molecule “chromosomally 6xHis-tagged Mph1 (from UniProt P40562 1-993)”, the binding entry is on record as “binds”.

B1: chromosomally 6xHis-tagged Msh2 (protein, UniProt P25847 1-964)
chain: MSSTRPELKFSDVSEERNFYKKYTGLPKKPLKTIRLVDKGDYYTVIGSDAIFVADSVYHTQSVLKNCQLDPVTAKNFHEPTKYVTVSLQVLATLLKLCLLDLGYKVEIYDKGWKLIKSASPGNIEQVNELMNMNIDSSIIIASLKVQWNSQDGNCIIGVAFIDTTAYKVGMLDIVDNEVYSNLESFLIQLGVKECLVQDLTSNSNSNAEMQKVINVIDRCGCVVTLLKNSEFSEKDVELDLTKLLGDDLALSLPQKYSKLSMGACNALIGYLQLLSEQDQVGKYELVEHKLKEFMKLDASAIKALNLFPQGPQNPFGSNNLAVSGFTSAGNSGKVTSLFQLLNHCKTNAGVRLLNEWLKQPLTNIDEINKRHDLVDYLIDQIELRQMLTSEYLPMIPDIRRLTKKLNKRGNLEDVLKIYQFSKRIPEIVQVFTSFLEDDSPTEPVNELVRSVWLAPLSHHVEPLSKFEEMVETTVDLDAYEENNEFMIKVEFNEELGKIRSKLDTLRDEIHSIHLDSAEDLGFDPDKKLKLENHHLHGWCMRLTRNDAKELRKHKKYIELSTVKAGIFFSTKQLKSIANETNILQKEYDKQQSALVREIINITLTYTPVFEKLSLVLAHLDVIASFAHTSSYAPIPYIRPKLHPMDSERRTHLISSRHPVLEMQDDISFISNDVTLESGKGDFLIITGPNMGGKSTYIRQVGVISLMAQIGCFVPCEEAEIAIVDAILCRVGAGDSQLKGVSTFMVEILETASILKNASKNSLIIVDELGRGTSTYDGFGLAWAIAEHIASKIGCFALFATHFHELTELSEKLPNVKNMHVVAHIEKNLKEQKHDDEDITLLYKVEPGISDQSFGIHVAEVVQFPEKIVKMAKRKANELDDLKTNNEDLKKAKLSLQEVNEGNIRLKALLKEWIRKVKEEGLHDPSKITEEASQHKIQELLRAIANEPEKENDNYLKYIKALLL
Turning to B1, the binding result was “binds”.

B2: chromosomally 6xHis-tagged Msh6 (protein, UniProt Q03834 1-1242)
chain: MAPATPKTSKTAHFENGSTSSQKKMKQSSLLSFFSKQVPSGTPSKKVQKPTPATLENTATDKITKNPQGGKTGKLFVDVDEDNDLTIAEETVSTVRSDIMHSQEPQSDTMLNSNTTEPKSTTTDEDLSSSQSRRNHKRRVNYAESDDDDSDTTFTAKRKKGKVVDSESDEDEYLPDKNDGDEDDDIADDKEDIKGELAEDSGDDDDLISLAETTSKKKFSYNTSHSSSPFTRNISRDNSKKKSRPNQAPSRSYNPSHSQPSATSKSSKFNKQNEERYQWLVDERDAQRRPKSDPEYDPRTLYIPSSAWNKFTPFEKQYWEIKSKMWDCIVFFKKGKFFELYEKDALLANALFDLKIAGGGRANMQLAGIPEMSFEYWAAQFIQMGYKVAKVDQRESMLAKEMREGSKGIVKRELQCILTSGTLTDGDMLHSDLATFCLAIREEPGNFYNETQLDSSTIVQKLNTKIFGAAFIDTATGELQMLEFEDDSECTKLDTLMSQVRPMEVVMERNNLSTLANKIVKFNSAPNAIFNEVKAGEEFYDCDKTYAEIISSEYFSTEEDWPEVLKSYYDTGKKVGFSAFGGLLYYLKWLKLDKNLISMKNIKEYDFVKSQHSMVLDGITLQNLEIFSNSFDGSDKGTLFKLFNRAITPMGKRMMKKWLMHPLLRKNDIESRLDSVDSLLQDITLREQLEITFSKLPDLERMLARIHSRTIKVKDFEKVITAFETIIELQDSLKNNDLKGDVSKYISSFPEGLVEAVKSWTNAFERQKAINENIIVPQRGFDIEFDKSMDRIQELEDELMEILMTYRKQFKCSNIQYKDSGKEIYTIEIPISATKNVPSNWVQMAANKTYKRYYSDEVRALARSMAEAKEIHKTLEEDLKNRLCQKFDAHYNTIWMPTIQAISNIDCLLAITRTSEYLGAPSCRPTIVDEVDSKTNTQLNGFLKFKSLRHPCFNLGATTAKDFIPNDIELGKEQPRLGLLTGANAAGKSTILRMACIAVIMAQMGCYVPCESAVLTPIDRIMTRLGANDNIMQGKSTFFVELAETKKILDMATNRSLLVVDELGRGGSSSDGFAIAESVLHHVATHIQSLGFFATHYGTLASSFKHHPQVRPLKMSILVDEATRNVTFLYKMLEGQSEGSFGMHVASMCGISKEIIDNAQIAADNLEHTSRLVKERDLAANNLNGEVVSVPGGLQSDFVRIAYGDGLKNTKLGSGEGVLNYDWNIKRNVLKSLFSIIDDLQS
With B2, the binding entry is “binds”.
